Measurements: patent US20240392039A1
Results are given in words; binding and its absence hold for the method and conditions named. Some results given as binding are weak or reduced against the parent protein; the word gives no strength.

Protein sequences, listed by entry. Tags and fused reporters are not part of them. Lines headed by an entry give the natural chain unless they say otherwise; changes in a name come on top.
UniProt P01031: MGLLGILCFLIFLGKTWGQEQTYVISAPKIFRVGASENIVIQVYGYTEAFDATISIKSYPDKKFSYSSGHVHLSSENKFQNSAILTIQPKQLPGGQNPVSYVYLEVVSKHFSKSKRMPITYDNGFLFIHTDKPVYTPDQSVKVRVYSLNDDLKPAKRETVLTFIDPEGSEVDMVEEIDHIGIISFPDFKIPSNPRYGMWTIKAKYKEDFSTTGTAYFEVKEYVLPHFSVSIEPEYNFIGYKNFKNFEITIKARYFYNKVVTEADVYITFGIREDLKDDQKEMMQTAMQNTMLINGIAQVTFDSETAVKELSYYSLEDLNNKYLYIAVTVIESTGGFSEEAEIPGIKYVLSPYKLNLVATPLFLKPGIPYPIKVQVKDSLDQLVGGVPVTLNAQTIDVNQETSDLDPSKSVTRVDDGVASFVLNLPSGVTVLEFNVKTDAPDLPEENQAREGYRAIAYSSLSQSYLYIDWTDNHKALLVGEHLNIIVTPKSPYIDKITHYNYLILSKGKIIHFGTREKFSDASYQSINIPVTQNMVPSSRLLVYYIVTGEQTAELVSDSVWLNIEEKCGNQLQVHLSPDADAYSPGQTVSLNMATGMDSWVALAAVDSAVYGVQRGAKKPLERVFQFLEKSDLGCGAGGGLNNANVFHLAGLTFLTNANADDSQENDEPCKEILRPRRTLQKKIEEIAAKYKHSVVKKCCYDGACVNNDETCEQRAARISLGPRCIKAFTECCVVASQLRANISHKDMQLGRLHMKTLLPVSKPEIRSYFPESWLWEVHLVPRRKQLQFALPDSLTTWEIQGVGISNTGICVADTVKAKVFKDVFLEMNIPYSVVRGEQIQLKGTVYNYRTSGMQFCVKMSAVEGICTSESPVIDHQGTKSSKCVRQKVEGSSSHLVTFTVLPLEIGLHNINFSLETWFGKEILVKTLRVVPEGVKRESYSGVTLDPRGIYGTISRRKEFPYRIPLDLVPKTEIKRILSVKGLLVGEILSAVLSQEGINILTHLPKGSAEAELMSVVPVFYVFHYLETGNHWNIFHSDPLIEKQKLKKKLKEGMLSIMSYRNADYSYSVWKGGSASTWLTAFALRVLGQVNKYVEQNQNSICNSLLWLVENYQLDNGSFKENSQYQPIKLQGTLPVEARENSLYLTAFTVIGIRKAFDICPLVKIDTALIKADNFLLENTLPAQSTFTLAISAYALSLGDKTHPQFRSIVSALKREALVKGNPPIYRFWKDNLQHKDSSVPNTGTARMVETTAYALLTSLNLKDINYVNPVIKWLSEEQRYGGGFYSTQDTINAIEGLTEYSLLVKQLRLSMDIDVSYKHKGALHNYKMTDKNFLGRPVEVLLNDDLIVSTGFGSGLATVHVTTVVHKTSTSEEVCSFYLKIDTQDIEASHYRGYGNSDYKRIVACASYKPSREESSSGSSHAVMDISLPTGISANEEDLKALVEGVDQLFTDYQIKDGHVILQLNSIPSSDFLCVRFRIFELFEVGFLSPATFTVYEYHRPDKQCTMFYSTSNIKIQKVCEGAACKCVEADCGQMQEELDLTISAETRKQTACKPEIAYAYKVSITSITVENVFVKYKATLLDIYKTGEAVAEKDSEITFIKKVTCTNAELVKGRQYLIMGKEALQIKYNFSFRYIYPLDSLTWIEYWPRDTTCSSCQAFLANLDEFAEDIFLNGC

Key:
[1] = target: human complement C5 (human) (UniProt P01031); assay: A4F-MALLS, mixed with H4H12166P and hC5 at 0.5:0.5:1 µM
[2] = target: human complement C5 (human) (UniProt P01031); assay: A4F-MALLS fractogram; H4H12166P, H4H12171P and hC5 mixed at 0.5:0.5:1 µM
[3] = target: human complement C5 (human) (UniProt P01031); assay: A4F-MALLS fractogram; H4H12166P, H4H12175P and hC5 mixed at 0.5:0.5:1 µM

B1: H4H12171P (antibody, V domains shown)
VH: EVQLVESGGGVVRPGGSLRLSCAASGFTFDEYGMTWVRQVPGKGLEWVSGITWNGGFTDYTDSVKGRFTSSRDNAKNSLYLQMNSLRAEDTALYYCARDGYSSSWGAYDIWGQGTMVTVSS
VL: DIQMTQSPSSLSASVGDRVTITCRASQSISTYLNWYQQKPGKAPKLLIYAASSLQSGVPLRFSGSGSGTDFTLTISSLQPEDFASYFCQQSYSTPYTFGQGTKLEIK
[1]
  binding: binds
[2]
  binding: binds

B2: H4H12175P (antibody, V domains shown)
VH: EVQLVESGGGVVQPGGSLRLSCAASGFTFNDYAMHWVRQAPGKGLEWVSLISGDGGNTYYADSVKGRLTISRDNSKNSLYLQMNSLRTEDTALYYCAKDKGWNFGYFDLWGRGTLVTVSS
VL: DIQMTQSPSSLSTSVGDRVTITCRASQNIDTYLNWYQQKPGKAPKLLIYDASSLQSGVPSRFSGSGSGTDFTLTITSLQPEDFATYYCQQNDNILHPLTFGGGTKVEIK
[1]
  binding: binds
[3]
  binding: binds

B3: H4H12161P (antibody, V domains shown)
VH: EVQLVESGGDLVQPGGSLRLSCAASGFTFSDHYMDWVRQAPGKGLDWIGRIRNKANAYNTEYAASVRGRFTISRDDSQNLLYLQMNSLKTDDTAVYYCVRVWNYAYFAMDVWGQGTTVTVSS
VL: DIQMTQSPSSLSASVGDRVTITCRSSQNIGIFLNWYQQKPGEAPNLLISAASSLHSGVPSRFSGSGSGTDFTLTIGSLQPEDFATYYCQQTYNTIFTFGPGTKVDIK
[1]
  binding: binds
